In the supplement of paper PMC10849652:
Some of the results follow.

The chains behind the UniProt entries cited, without tags or fusion partners. Where a name states a change or a piece, a line headed by the entry shows the natural chain unless it says otherwise.
UniProt Q9BUH6, whole entry, looked up: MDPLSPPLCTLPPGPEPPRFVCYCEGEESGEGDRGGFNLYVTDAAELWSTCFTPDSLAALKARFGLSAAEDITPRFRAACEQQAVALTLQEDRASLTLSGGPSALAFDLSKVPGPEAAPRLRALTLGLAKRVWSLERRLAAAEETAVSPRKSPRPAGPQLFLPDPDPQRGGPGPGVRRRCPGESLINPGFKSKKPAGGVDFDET
UniProt P13667: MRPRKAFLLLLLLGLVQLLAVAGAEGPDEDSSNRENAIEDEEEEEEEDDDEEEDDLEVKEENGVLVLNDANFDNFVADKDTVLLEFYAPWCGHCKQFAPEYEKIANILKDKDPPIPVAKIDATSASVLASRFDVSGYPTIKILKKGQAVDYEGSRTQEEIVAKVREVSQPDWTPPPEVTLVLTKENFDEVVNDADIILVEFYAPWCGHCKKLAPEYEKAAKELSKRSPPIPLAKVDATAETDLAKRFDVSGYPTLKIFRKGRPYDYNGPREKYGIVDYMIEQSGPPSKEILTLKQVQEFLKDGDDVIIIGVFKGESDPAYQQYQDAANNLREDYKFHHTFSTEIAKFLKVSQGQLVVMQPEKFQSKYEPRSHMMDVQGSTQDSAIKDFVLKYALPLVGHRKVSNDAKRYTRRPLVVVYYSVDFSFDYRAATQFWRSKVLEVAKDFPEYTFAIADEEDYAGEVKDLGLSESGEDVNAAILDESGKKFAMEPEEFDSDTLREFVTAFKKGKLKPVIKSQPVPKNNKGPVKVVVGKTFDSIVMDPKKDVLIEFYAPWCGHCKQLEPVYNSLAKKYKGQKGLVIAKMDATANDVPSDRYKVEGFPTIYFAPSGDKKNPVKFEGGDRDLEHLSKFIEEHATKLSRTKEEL
UniProt Q9UHG3: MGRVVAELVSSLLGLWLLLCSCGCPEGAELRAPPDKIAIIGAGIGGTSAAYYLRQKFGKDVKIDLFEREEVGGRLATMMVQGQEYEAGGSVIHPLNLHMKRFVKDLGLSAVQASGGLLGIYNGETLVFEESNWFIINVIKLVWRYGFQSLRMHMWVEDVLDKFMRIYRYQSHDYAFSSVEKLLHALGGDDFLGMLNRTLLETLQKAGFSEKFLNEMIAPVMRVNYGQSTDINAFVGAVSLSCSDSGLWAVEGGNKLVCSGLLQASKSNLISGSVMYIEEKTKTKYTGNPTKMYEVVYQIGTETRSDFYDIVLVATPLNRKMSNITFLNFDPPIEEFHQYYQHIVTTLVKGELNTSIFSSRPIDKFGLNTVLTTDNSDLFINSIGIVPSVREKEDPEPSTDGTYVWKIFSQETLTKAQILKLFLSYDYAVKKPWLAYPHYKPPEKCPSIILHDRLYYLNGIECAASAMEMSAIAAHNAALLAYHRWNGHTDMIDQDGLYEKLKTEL
UniProt Q9HBI1: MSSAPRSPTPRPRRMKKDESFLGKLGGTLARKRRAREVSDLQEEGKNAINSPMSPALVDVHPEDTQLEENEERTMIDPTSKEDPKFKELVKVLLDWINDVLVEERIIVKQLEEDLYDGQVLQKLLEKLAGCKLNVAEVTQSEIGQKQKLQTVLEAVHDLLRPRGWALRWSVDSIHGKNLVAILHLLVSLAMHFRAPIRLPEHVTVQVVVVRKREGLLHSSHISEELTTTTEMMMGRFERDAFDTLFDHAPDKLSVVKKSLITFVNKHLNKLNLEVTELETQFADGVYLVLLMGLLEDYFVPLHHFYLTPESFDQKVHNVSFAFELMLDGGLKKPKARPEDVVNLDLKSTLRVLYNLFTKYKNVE
UniProt Q96GD0: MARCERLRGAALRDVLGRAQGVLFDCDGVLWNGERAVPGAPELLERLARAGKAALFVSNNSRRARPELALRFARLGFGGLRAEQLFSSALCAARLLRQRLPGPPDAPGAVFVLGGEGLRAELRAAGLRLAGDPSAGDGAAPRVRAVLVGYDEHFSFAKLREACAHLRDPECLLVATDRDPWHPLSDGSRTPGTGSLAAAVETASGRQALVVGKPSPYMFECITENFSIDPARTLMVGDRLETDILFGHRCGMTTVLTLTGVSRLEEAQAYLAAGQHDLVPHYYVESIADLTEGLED
UniProt P30101, whole entry, looked up: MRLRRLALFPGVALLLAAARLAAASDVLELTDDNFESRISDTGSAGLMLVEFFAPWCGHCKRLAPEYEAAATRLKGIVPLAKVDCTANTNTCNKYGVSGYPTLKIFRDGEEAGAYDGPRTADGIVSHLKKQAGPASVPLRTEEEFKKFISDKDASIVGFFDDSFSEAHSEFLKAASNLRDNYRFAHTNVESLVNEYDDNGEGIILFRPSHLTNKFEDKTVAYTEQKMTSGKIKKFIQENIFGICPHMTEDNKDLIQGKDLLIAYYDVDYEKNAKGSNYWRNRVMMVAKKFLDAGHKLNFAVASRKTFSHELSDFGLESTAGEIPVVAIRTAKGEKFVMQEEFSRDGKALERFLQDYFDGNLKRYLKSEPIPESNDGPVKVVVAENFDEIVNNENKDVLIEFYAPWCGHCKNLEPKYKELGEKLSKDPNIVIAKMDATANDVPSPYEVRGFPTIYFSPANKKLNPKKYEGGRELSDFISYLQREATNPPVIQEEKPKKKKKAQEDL
UniProt P12955: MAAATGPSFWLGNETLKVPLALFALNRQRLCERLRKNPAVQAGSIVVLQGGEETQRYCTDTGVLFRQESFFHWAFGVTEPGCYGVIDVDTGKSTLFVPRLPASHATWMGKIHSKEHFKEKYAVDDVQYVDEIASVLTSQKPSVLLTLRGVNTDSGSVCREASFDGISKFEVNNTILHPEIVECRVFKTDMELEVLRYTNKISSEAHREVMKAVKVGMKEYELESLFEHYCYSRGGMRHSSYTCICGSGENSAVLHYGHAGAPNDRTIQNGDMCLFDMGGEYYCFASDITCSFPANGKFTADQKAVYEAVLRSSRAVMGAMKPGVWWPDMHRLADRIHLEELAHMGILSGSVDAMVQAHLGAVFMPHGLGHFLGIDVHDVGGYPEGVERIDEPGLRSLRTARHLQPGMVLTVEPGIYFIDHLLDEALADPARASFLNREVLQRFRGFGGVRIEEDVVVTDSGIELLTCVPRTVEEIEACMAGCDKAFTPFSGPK
UniProt Q13310, whole entry, looked up: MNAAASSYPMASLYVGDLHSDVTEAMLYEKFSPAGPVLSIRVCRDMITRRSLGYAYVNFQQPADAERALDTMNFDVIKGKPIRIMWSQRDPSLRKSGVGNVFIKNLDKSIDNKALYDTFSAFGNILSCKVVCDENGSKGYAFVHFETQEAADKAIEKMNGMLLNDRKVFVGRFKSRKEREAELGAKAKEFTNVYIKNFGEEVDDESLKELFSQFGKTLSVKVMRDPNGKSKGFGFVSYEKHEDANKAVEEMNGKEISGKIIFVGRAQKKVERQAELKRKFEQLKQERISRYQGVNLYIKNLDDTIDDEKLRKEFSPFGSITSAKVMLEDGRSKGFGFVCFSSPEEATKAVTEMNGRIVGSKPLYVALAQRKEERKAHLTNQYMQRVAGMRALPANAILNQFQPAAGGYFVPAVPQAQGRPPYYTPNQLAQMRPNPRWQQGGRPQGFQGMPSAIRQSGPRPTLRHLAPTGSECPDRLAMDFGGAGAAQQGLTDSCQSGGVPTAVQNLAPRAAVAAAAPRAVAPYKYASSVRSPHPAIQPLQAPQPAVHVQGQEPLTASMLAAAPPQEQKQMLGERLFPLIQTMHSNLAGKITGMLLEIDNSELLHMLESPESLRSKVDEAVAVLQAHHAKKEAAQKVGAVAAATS
UniProt Q14690: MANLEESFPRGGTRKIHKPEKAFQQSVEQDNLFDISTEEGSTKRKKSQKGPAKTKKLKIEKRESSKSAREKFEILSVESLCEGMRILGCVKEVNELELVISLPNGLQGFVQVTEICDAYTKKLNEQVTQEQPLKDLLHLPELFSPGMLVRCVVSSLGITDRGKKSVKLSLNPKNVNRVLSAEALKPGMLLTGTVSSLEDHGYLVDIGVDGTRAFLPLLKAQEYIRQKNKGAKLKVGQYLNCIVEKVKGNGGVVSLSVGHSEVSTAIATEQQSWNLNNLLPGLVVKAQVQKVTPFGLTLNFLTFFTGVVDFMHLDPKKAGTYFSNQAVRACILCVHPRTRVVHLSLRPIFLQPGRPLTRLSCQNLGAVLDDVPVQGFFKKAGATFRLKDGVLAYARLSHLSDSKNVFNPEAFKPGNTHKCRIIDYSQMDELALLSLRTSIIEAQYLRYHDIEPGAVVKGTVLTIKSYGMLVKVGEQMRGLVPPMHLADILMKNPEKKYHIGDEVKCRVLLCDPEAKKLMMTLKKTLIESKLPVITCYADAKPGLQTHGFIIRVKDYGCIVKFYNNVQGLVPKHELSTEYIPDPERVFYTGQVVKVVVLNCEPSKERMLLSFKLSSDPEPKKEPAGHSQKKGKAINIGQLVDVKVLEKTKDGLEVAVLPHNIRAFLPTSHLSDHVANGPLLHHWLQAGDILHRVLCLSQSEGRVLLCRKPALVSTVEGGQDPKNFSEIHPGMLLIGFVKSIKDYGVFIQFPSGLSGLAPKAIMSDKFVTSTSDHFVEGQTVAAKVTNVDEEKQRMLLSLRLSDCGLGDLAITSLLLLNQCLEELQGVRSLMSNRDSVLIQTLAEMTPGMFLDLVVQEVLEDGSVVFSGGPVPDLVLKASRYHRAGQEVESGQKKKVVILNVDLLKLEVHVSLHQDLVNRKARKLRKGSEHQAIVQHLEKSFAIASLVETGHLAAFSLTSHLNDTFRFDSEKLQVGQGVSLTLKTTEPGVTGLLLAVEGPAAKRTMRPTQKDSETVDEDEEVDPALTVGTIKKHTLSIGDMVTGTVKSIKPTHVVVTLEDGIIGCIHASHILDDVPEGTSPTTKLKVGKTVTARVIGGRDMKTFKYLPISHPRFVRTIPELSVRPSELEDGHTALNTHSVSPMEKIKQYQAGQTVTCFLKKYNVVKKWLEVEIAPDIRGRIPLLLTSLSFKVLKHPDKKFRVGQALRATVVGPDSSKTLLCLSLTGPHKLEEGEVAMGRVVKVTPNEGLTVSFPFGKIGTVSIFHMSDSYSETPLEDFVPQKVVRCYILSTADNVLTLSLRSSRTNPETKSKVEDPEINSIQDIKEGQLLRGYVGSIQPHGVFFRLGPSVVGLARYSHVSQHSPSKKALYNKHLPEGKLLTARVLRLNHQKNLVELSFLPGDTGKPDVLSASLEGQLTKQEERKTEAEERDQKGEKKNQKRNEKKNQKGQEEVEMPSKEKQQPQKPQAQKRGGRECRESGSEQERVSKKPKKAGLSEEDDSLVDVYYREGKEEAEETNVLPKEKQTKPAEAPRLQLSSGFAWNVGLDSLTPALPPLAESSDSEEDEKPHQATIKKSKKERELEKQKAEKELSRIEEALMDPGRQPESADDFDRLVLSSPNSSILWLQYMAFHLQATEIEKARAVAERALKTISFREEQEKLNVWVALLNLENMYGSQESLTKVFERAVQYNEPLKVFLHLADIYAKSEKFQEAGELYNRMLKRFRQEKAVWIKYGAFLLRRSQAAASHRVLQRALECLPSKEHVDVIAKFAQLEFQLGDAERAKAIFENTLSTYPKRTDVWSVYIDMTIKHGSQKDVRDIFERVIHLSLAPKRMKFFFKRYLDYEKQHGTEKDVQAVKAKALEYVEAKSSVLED
UniProt Q9BUL8: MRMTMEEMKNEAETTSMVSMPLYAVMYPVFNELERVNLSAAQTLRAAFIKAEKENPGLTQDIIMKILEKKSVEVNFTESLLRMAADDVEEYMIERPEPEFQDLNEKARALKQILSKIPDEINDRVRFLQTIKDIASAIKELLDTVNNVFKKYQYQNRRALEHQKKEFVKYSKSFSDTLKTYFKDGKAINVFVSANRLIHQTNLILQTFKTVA
UniProt O00764: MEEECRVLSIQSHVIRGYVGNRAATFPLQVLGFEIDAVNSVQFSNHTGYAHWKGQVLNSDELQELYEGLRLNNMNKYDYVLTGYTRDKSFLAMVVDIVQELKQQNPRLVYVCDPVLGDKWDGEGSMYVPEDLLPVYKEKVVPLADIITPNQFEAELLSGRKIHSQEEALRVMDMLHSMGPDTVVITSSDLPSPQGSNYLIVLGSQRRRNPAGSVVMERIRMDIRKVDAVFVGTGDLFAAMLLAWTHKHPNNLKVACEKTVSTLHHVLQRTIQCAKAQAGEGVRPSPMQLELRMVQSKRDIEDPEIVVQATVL
UniProt Q13177, whole entry, looked up: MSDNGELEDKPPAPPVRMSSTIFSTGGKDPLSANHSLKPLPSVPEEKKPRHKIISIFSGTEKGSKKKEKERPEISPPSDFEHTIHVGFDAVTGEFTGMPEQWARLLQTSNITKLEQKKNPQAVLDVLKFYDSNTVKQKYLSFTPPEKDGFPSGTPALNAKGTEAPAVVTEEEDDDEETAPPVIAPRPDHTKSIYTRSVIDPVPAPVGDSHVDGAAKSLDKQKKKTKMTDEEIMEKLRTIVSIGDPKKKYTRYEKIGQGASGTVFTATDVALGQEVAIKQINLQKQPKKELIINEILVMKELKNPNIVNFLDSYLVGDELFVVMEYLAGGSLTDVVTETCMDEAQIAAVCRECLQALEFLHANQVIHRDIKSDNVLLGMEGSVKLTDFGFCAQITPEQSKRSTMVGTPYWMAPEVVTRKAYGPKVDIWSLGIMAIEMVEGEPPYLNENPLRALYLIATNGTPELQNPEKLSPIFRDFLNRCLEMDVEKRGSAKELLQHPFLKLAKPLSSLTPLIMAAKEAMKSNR

Key:
Experiment in all cases: log2 fold change, soluble protein after heating vs DMSO (PISA); higher = thermal stabilisation; K562 cells, 10 uM, 30 min; active = over 0.2 and 3.5 SD of the protein, either way, in both replicates (recomputed)
saracatinib = compound: CN1CCN(CCOc2cc(OC3CCOCC3)c3c(Nc4c(Cl)ccc5c4OCO5)ncnc3c2)CC1 [saracatinib]
Procedure, shortened: (§1)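 Thermal stability values are relative to control samples and come from duplicates. They are expressed as log2 fold changes. For measurement, K562 cells (2×10^6 cells/mL) received 10 μM compound for 30 min, and aliquots were heated for 3 min over 48°C-58°C, pooled, and extracted at 4°C in PBS with 0.5% NP-40. Soluble protein, the supernatant after 21,000xg for 90 min, was quantified by TMTpro 16plex LC-MS/MS with equalised channel sums.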

sotrastaurin = compound: CN1CCN(c2nc(C3=C(c4c[nH]c5ccccc45)C(=O)NC3=O)c3ccccc3n2)CC1 [sotrastaurin]
Procedure, shortened: as §1

alvocidib = compound: CN1CC[C@H](c2c(O)cc(O)c3c(=O)cc(-c4ccccc4Cl)oc23)[C@H](O)C1 [alvocidib]
Procedure, shortened: as §1

Tubastatin A = compound: CN1CCc2c(c3ccccc3n2Cc2ccc(C(=O)NO)cc2)C1 [Tubastatin A]
Procedure, shortened: as §1

[1] = compound: CNC(=O)C1=CC=CC=C1NC2=NC(=NC=C2Cl)NC3=C(C=C(C=C3)N4CCOCC4)OC
Procedure, shortened: as §1

defactinib = compound: CNC(=O)c1ccc(Nc2ncc(C(F)(F)F)c(NCc3nccnc3N(C)S(C)(=O)=O)n2)cc1 [defactinib]
Procedure, shortened: as §1

rucaparib = compound: CNCc1ccc(-c2[nH]c3cc(F)cc4c3c2CCNC4=O)cc1 [rucaparib]
Procedure, shortened: as §1

[2] = compound: CNc1nc(-c2ccc3c(N)n[nH]c3c2)cc(N2C[C@@H](C(=O)NC3CCCCC3)CC[C@H]2C)n1
Procedure, shortened: as §1

encorafenib = compound: COC(=O)N[C@@H](C)CNc1nccc(-c2cn(C(C)C)nc2-c2cc(Cl)cc(NS(C)(=O)=O)c2F)n1 [encorafenib]
Procedure, shortened: as §1

[3] = compound: COC(=O)[C@H](CCSC)NC(=O)C1=C(C=C(C=C1)NC[C@H](CS)N)C2=CC=CC=C2
Procedure, shortened: as §1

Measured: log2 fold change

PAXX (UniProt Q9BUH6)
inactive: saracatinib 0.028 | sotrastaurin 0.059 | alvocidib 0.037 | Tubastatin A -0.027 | [1] -0.131 | defactinib -0.026 | rucaparib 0.004 | [2] -0.026 | encorafenib -0.031 | [3] 0.008

PDIA4 (UniProt P13667)
inactive: saracatinib -0.083 | sotrastaurin -0.048 | alvocidib -0.004 | Tubastatin A 0.026 | [1] 0.02 | defactinib 0.043 | rucaparib 0.007 | [2] 0.026 | encorafenib 0.067 | [3] -0.009

PES1 (UniProt O00541)
inactive: saracatinib -0.011 | sotrastaurin 0.018 | alvocidib 0.091 | Tubastatin A 0.068 | [1] -0.027 | defactinib 0.079 | rucaparib 0.213 | [2] 0.111 | encorafenib 0.169 | [3] -0.003

PANX1 (UniProt Q96RD7)
inactive: saracatinib -0.001 | sotrastaurin -0.01 | alvocidib -0.087 | Tubastatin A 0.038 | [1] -0.015 | defactinib -0.026 | rucaparib 0 | [2] -0.063 | encorafenib -0.01 | [3] 0.044

PACSIN2 (UniProt Q9UNF0)
inactive: saracatinib -0.149 | sotrastaurin -0.155 | alvocidib -0.194 | Tubastatin A 0.066 | [1] -0.106 | defactinib -0.131 | rucaparib 0.058 | [2] 0.128 | encorafenib 0.056 | [3] -0.061

PALM3 (UniProt A6NDB9)
inactive: saracatinib -0.026 | sotrastaurin 0.056 | alvocidib 0.087 | Tubastatin A 0.06 | [1] -0.081 | defactinib -0.025 | rucaparib -0.041 | [2] 0.001 | encorafenib 0.006 | [3] 0.025

PCYOX1 (UniProt Q9UHG3)
inactive: saracatinib 0.004 | sotrastaurin 0.017 | alvocidib 0.016 | Tubastatin A -0.037 | [1] -0.022 | defactinib 0.001 | rucaparib -0.024 | [2] -0.087 | encorafenib 0.009 | [3] -0.027

PANK4 (UniProt Q9NVE7)
inactive: saracatinib 0.02 | sotrastaurin 0.154 | alvocidib -0.029 | Tubastatin A 0.001 | [1] 0.02 | defactinib 0.009 | rucaparib -0.032 | [2] -0.067 | encorafenib 0.013 | [3] -0.025

PDHB (UniProt P11177)
inactive: saracatinib -0.14 | sotrastaurin -0.099 | alvocidib -0.01 | Tubastatin A 0.125 | [1] -0.013 | defactinib 0.139 | rucaparib 0.047 | [2] 0.17 | encorafenib 0.113 | [3] -0.05

PDRG1 (UniProt Q9NUG6)
inactive: saracatinib 0.043 | sotrastaurin -0.028 | alvocidib 0.019 | Tubastatin A 0.042 | [1] -0.061 | defactinib -0.032 | rucaparib 0.037 | [2] -0.009 | encorafenib -0.024 | [3] 0.039

PCNA (UniProt P12004)
inactive: saracatinib 0.001 | sotrastaurin 0.014 | alvocidib -0.009 | Tubastatin A -0.036 | [1] -0.025 | defactinib 0.009 | rucaparib -0.049 | [2] -0.049 | encorafenib -0.01 | [3] 0.017

PARK7 (UniProt Q99497)
inactive: saracatinib 0.051 | sotrastaurin 0 | alvocidib -0.051 | Tubastatin A -0.009 | [1] -0.067 | defactinib -0.016 | rucaparib -0.078 | [2] 0.046 | encorafenib 0.049 | [3] 0.009

PAXIP1 (UniProt Q6ZW49)
inactive: saracatinib -0.103 | sotrastaurin 0.057 | alvocidib 0.073 | Tubastatin A -0.041 | [1] 0.031 | defactinib -0.034 | rucaparib -0.186 | [2] 0.015 | encorafenib 0.129 | [3] 0.151

6 neighbouring records already listed:
PALM3 (UniProt A6NDB9)
inactive: saracatinib -0.026 | sotrastaurin 0.056 | alvocidib 0.087 | Tubastatin A 0.06 | [1] -0.081 | defactinib -0.025 | rucaparib -0.041 | [2] 0.001 | encorafenib 0.006 | [3] 0.025

PCYOX1 (UniProt Q9UHG3)
inactive: saracatinib 0.004 | sotrastaurin 0.017 | alvocidib 0.016 | Tubastatin A -0.037 | [1] -0.022 | defactinib 0.001 | rucaparib -0.024 | [2] -0.087 | encorafenib 0.009 | [3] -0.027

PANK4 (UniProt Q9NVE7)
inactive: saracatinib 0.02 | sotrastaurin 0.154 | alvocidib -0.029 | Tubastatin A 0.001 | [1] 0.02 | defactinib 0.009 | rucaparib -0.032 | [2] -0.067 | encorafenib 0.013 | [3] -0.025

PDHB (UniProt P11177)
inactive: saracatinib -0.14 | sotrastaurin -0.099 | alvocidib -0.01 | Tubastatin A 0.125 | [1] -0.013 | defactinib 0.139 | rucaparib 0.047 | [2] 0.17 | encorafenib 0.113 | [3] -0.05

PDRG1 (UniProt Q9NUG6)
inactive: saracatinib 0.043 | sotrastaurin -0.028 | alvocidib 0.019 | Tubastatin A 0.042 | [1] -0.061 | defactinib -0.032 | rucaparib 0.037 | [2] -0.009 | encorafenib -0.024 | [3] 0.039

PCNA (UniProt P12004)
inactive: saracatinib 0.001 | sotrastaurin 0.014 | alvocidib -0.009 | Tubastatin A -0.036 | [1] -0.025 | defactinib 0.009 | rucaparib -0.049 | [2] -0.049 | encorafenib -0.01 | [3] 0.017

Next results follow:

PARVB (UniProt Q9HBI1)
inactive: saracatinib -0.023 | sotrastaurin -0.027 | alvocidib -0.127 | Tubastatin A 0.046 | [1] -0.072 | defactinib -0.053 | rucaparib -0.032 | [2] 0.084 | encorafenib 0.031 | [3] 0

PBLD (UniProt P30039)
inactive: saracatinib 0.02 | sotrastaurin -0.014 | alvocidib 0.012 | Tubastatin A 0.066 | [1] 0.002 | defactinib -0.005 | rucaparib -0.013 | [2] 0 | encorafenib -0.032 | [3] -0.003

PAFAH1B1 (UniProt P43034)
inactive: saracatinib 0.033 | sotrastaurin 0.063 | alvocidib -0.029 | Tubastatin A -0.047 | [1] -0.015 | defactinib -0.033 | rucaparib -0.031 | [2] -0.004 | encorafenib -0.022 | [3] -0.013

PDXP (UniProt Q96GD0)
inactive: saracatinib 0.005 | sotrastaurin 0.035 | alvocidib 0.01 | Tubastatin A -0.034 | [1] -0.046 | defactinib -0.015 | rucaparib -0.026 | [2] -0.099 | encorafenib -0.03 | [3] 0.026

PDIA3 (UniProt P30101)
inactive: saracatinib -0.117 | sotrastaurin -0.08 | alvocidib 0.046 | Tubastatin A 0.004 | [1] 0.02 | defactinib 0.063 | rucaparib 0.017 | [2] 0.004 | encorafenib 0.095 | [3] -0.02

PCBD2 (UniProt Q9H0N5)
inactive: saracatinib 0.038 | sotrastaurin -0.014 | alvocidib 0.038 | Tubastatin A -0.048 | [1] 0.01 | defactinib 0.015 | rucaparib -0.014 | [2] -0.039 | encorafenib -0.01 | [3] 0.028

PDHX (UniProt O00330)
inactive: saracatinib -0.246 | sotrastaurin -0.088 | alvocidib 0.151 | Tubastatin A 0.155 | [1] -0.003 | defactinib 0.236 | rucaparib 0.079 | [2] 0.049 | encorafenib 0.136 | [3] 0.026

PCNP (UniProt Q8WW12)
inactive: saracatinib 0.026 | sotrastaurin 0.006 | alvocidib 0.037 | Tubastatin A -0.019 | [1] -0.022 | defactinib 0.029 | rucaparib -0.025 | [2] -0.018 | encorafenib -0.018 | [3] -0.005

PEPD (UniProt P12955)
inactive: saracatinib 0.036 | sotrastaurin 0.03 | alvocidib -0.038 | Tubastatin A -0.008 | [1] -0.006 | defactinib -0.012 | rucaparib -0.002 | [2] -0.073 | encorafenib -0.015 | [3] 0.028

PABPC4 isoform 3 (UniProt Q13310)
inactive: saracatinib 0.021 | sotrastaurin 0.016 | alvocidib 0.043 | Tubastatin A 0.045 | [1] 0.042 | defactinib 0.054 | rucaparib 0.2 | [2] -0.006 | encorafenib 0.003 | [3] 0.013

PDCD11 (UniProt Q14690)
inactive: saracatinib 0.036 | sotrastaurin -0.098 | alvocidib -0.007 | Tubastatin A 0.051 | [1] -0.139 | defactinib 0.069 | rucaparib -0.037 | [2] 0.028 | encorafenib 0.034 | [3] -0.143

PDCD10 (UniProt Q9BUL8)
inactive: saracatinib -0.032 | sotrastaurin 0.109 | alvocidib 0.009 | Tubastatin A 0.004 | [1] -0.033 | defactinib -0.038 | rucaparib -0.064 | [2] 0.015 | encorafenib 0 | [3] 0.001

PDXK (UniProt O00764)
inactive: saracatinib 0 | sotrastaurin 0.006 | alvocidib 0.027 | Tubastatin A 0.028 | [1] -0.013 | defactinib -0.007 | rucaparib -0.043 | [2] -0.019 | encorafenib 0.052 | [3] 0.048

PCYOX1L (UniProt Q8NBM8)
inactive: saracatinib 0.056 | sotrastaurin 0.085 | alvocidib 0.015 | Tubastatin A -0.008 | [1] 0.005 | defactinib -0.02 | rucaparib 0.055 | [2] -0.029 | encorafenib -0.064 | [3] -0.015

PALMD (UniProt Q9NP74)
inactive: saracatinib 0.045 | sotrastaurin 0.16 | alvocidib -0.114 | Tubastatin A 0.088 | [1] -0.026 | defactinib -0.07 | rucaparib 0.263 | [2] -0.032 | encorafenib -0.07 | [3] 0.072

PER3 isoform 2 (UniProt P56645)
inactive: saracatinib 0.117 | sotrastaurin -0.008 | alvocidib -0.058 | Tubastatin A 0.053 | [1] -0.047 | defactinib 0.006 | rucaparib 0.06 | [2] -0.074 | encorafenib -0.062 | [3] -0.019

PAK2 (UniProt Q13177)
inactive: saracatinib -0.002 | sotrastaurin 0.007 | alvocidib -0.033 | Tubastatin A 0.004 | [1] 0.017 | defactinib -0.028 | rucaparib -0.016 | [2] 0.004 | encorafenib -0.005 | [3] 0.006
